The subject of this series is MBP-FhtR (apo) (Enterococcus faecalis OG1RF). Put plainly: EMSA. As to conditions: EMSA: 20 mM Tris-HCl pH 8, 50 mM KCl, 0.2 mM MgCl2, 1 mM EDTA, 0.2 mM DTT, 5% glycerol, 7% PAGE in TBE, GelRed, temperature not stated, recombinant protein, residues 1-201, protein details: N-terminal MBP (pMAL-c4X), probe letters rebuilt from the primers and the genome. (Mobility shift assays separate free from complexed probe on a gel.)

For at least one entry, the source does not settle the construct or the ends of the probe. A weaker result is weaker than the reference pair of the same experiment.

Turning to “CCAGCGAAAAACAGTGGATGACGATGTCAAAAAATTTATTCAATTTATGCTACATGGCGTTTTGAAAAGTCACAAATAAAAAATAGAGAAGCCCTGTTGAAAAACAGACTTCTCTATTTTTTTGTGAAATTCACTTATCAATCGATAAATAATTATTGATTTATCGATTGATAAGTGATATAGTTTATTTCGAAAAGAAGAAAGAGGTGAACCATTCATGTTTTTAGGATTTAATGAAATGAAGTATTCAAAAGGACGGTACGTCCTTGTAGTCTTAGTAATGGTCTTGATTGCTTGGTTAATTTTTATTTTGTCAGGTTTAGCG (double strand) [PhrtBA WT]”, the binding result is reported as “binds more weakly” (hemin, intermediate amounts (0.1 and 1 uM), C1 and C2 both seen, 0.25 pmol DNA); “binds” (no hemin, two complexes C1 and C2, 0.25 pmol …).

These data come from publication PMC7858072.
